Experimental data from PubChem BioAssay AID186 (DTP/NCI, 2004).
The mice bore no tumour; each value counts animals alive of those treated. Survivors were counted at the toxicity check, usually on the fifth day, unless a day is given; later deaths do not show. Schedules are NCI's codes, taken here to give the interval after Q, in days (D) or hours (H), and the number of doses after X. Some entries hold several experiments; their values stand side by side, smallest first.

Tested on: B6D2F1 mice, nontumored toxicity test, survival
Assay: NCI In Vivo Anticancer Drug Screen. Data for tumor model Nontumored Animals (Toxicity Test) in B6D2F1 (BDF1) mice

O/N=c1/ccn(O)c2ccccc12
survivor count (dose: 0.25 mg/kg/injection, schedule: Q03HX024 (ip), vehicle: other): 6 of 6 | survivor count (dose: 0.5 mg/kg/injection, schedule: Q03HX008 (ip), vehicle: other): 6 of 6 | survivor count (dose: 0.5 mg/kg/injection, schedule: Q03HX016 (ip), vehicle: other): 6 of 6 | survivor count (dose: 0.5 mg/kg/injection, schedule: Q03HX024 (ip), vehicle: other): 6 of 6 | survivor count (dose: 1.0 mg/kg/injection, schedule: Q01DX005 (ip), vehicle: other): 6 of 6 | survivor count (dose: 1.0 mg/kg/injection, schedule: Q01DX009 (ip), vehicle: other): 6 of 6 | survivor count (dose: 1.0 mg/kg/injection, schedule: Q01DX009 (sc), vehicle: other): 6 of 6 | survivor count (dose: 1.0 mg/kg/injection, schedule: Q03HX008 (ip), vehicle: other): 6 of 6 | survivor count (dose: 1.0 mg/kg/injection, schedule: Q03HX016 (ip), vehicle: other): 6 of 6 | survivor count (dose: 1.0 mg/kg/injection, schedule: Q03HX024 (ip), vehicle: other): 6 of 6 | survivor count (dose: 2.0 mg/kg/injection, schedule: Q01DX005 (ip), vehicle: other): 6 of 6 | survivor count (dose: 2.0 mg/kg/injection, schedule: Q01DX009 (ip), vehicle: other): 6 of 6 | survivor count (dose: 2.0 mg/kg/injection, schedule: Q01DX009 (sc), vehicle: other): 6 of 6 | survivor count (dose: 2.0 mg/kg/injection, schedule: Q03HX008 (ip), vehicle: other): 6 of 6 | survivor count (dose: 2.0 mg/kg/injection, schedule: Q03HX016 (ip), vehicle: other): 6 of 6 | survivor count (dose: 2.0 mg/kg/injection, schedule: Q03HX024 (ip), vehicle: other): 6 of 6 | survivor count (dose: 2.0 mg/kg/injection, schedule: Q04DX003 (ip), vehicle: other): 6 of 6 | survivor count (dose: 4.0 mg/kg/injection, schedule: Q01DX001 (ip), vehicle: other): 6 of 6 | survivor count (dose: 4.0 mg/kg/injection, schedule: Q01DX001 (sc), vehicle: other): 6 of 6 | survivor count (dose: 4.0 mg/kg/injection, schedule: Q01DX005 (ip), vehicle: other): 6 of 6 | survivor count (dose: 4.0 mg/kg/injection, schedule: Q01DX009 (ip), vehicle: other): 6 of 6 | survivor count (dose: 4.0 mg/kg/injection, schedule: Q01DX009 (oral), vehicle: other): 6 of 6 | survivor count (dose: 4.0 mg/kg/injection, schedule: Q01DX009 (sc), vehicle: other): 6 of 6 | survivor count (dose: 4.0 mg/kg/injection, schedule: Q03HX008 (ip), vehicle: other): 6 of 6 | survivor count (dose: 4.0 mg/kg/injection, schedule: Q03HX016 (ip), vehicle: other): 6 of 6 | survivor count (dose: 4.0 mg/kg/injection, schedule: Q03HX024 (ip), vehicle: other): 6 of 6 | survivor count (dose: 4.0 mg/kg/injection, schedule: Q04DX003 (ip), vehicle: other): 6 of 6 | survivor count (dose: 4.0 mg/kg/injection, schedule: Q08DX002 (ip), vehicle: other): 6 of 6 | survivor count (dose: 8.0 mg/kg/injection, schedule: Q01DX001 (ip), vehicle: other): 6 of 6 | survivor count (dose: 8.0 mg/kg/injection, schedule: Q01DX001 (oral), vehicle: other): 6 of 6 | survivor count (dose: 8.0 mg/kg/injection, schedule: Q01DX001 (sc), vehicle: other): 6 of 6 | survivor count (dose: 8.0 mg/kg/injection, schedule: Q01DX005 (ip), vehicle: other): 6 of 6 | survivor count (dose: 8.0 mg/kg/injection, schedule: Q01DX009 (ip), vehicle: other): 6 of 6 | survivor count (dose: 8.0 mg/kg/injection, schedule: Q01DX009 (oral), vehicle: other): 6 of 6 | survivor count (dose: 8.0 mg/kg/injection, schedule: Q01DX009 (sc), vehicle: other): 6 of 6 | survivor count (dose: 8.0 mg/kg/injection, schedule: Q03HX008 (ip), vehicle: other): 4 of 6 | survivor count (dose: 8.0 mg/kg/injection, schedule: Q04DX003 (ip), vehicle: other): 6 of 6 | survivor count (dose: 8.0 mg/kg/injection, schedule: Q08DX002 (ip), vehicle: other): 6 of 6 | survivor count (dose: 16.0 mg/kg/injection, schedule: Q01DX001 (ip), vehicle: other): 6 of 6 | survivor count (dose: 16.0 mg/kg/injection, schedule: Q01DX001 (oral), vehicle: other): 5 of 6 | survivor count (dose: 16.0 mg/kg/injection, schedule: Q01DX001 (sc), vehicle: other): 6 of 6 | survivor count (dose: 16.0 mg/kg/injection, schedule: Q01DX005 (ip), vehicle: other): 6 of 6 | survivor count (dose: 16.0 mg/kg/injection, schedule: Q01DX009 (oral), vehicle: other): 6 of 6 | survivor count (dose: 16.0 mg/kg/injection, schedule: Q04DX003 (ip), vehicle: other): 6 of 6 | survivor count (dose: 16.0 mg/kg/injection, schedule: Q08DX002 (ip), vehicle: other): 6 of 6 | survivor count (dose: 32.0 mg/kg/injection, schedule: Q01DX001 (ip), vehicle: other): 5 of 6 | survivor count (dose: 32.0 mg/kg/injection, schedule: Q01DX001 (oral), vehicle: other): 6 of 6 | survivor count (dose: 32.0 mg/kg/injection, schedule: Q01DX001 (sc), vehicle: other): 6 of 6 | survivor count (dose: 32.0 mg/kg/injection, schedule: Q01DX009 (oral), vehicle: other): 6 of 6 | survivor count (dose: 32.0 mg/kg/injection, schedule: Q04DX003 (ip), vehicle: other): 6 of 6 | survivor count (dose: 32.0 mg/kg/injection, schedule: Q08DX002 (ip), vehicle: other): 6 of 6 | survivor count (dose: 64.0 mg/kg/injection, schedule: Q01DX001 (ip), vehicle: other): 3 of 6 | survivor count (dose: 64.0 mg/kg/injection, schedule: Q01DX001 (oral), vehicle: other): 6 of 6 | survivor count (dose: 64.0 mg/kg/injection, schedule: Q01DX001 (sc), vehicle: other): 6 of 6 | survivor count (dose: 128.0 mg/kg/injection, schedule: Q01DX001 (oral), vehicle: other): 6 of 6

CN(N=O)C(=O)N[C@@H](C=O)[C@@H](O)[C@H](O)[C@H](O)CO
survivor count (dose: 37.5 mg/kg/injection, schedule: Q04DX003 (ip), vehicle: saline): 4 of 4 | survivor count (dose: 75.0 mg/kg/injection, schedule: Q04DX003 (ip), vehicle: saline): 4 of 4 | survivor count (dose: 150.0 mg/kg/injection, schedule: Q04DX003 (ip), vehicle: saline): 4 of 4 | survivor count (dose: 250.0 mg/kg/injection, schedule: Q01DX001 (ip), vehicle: citric acid): 10 of 10 | survivor count (dose: 300.0 mg/kg/injection, schedule: Q01DX001 (ip), vehicle: citric acid): 10 of 10 | survivor count (dose: 300.0 mg/kg/injection, schedule: Q04DX003 (ip), vehicle: saline): 4 of 4 | survivor count (dose: 350.0 mg/kg/injection, schedule: Q01DX001 (ip), vehicle: citric acid): 10 of 10 and 8 of 8 | survivor count (dose: 400.0 mg/kg/injection, schedule: Q01DX001 (ip), vehicle: citric acid): 8 of 10 and 9 of 10

O=NN(CCF)C(=O)NC1CCCCC1
survivor count (dose: 2.5 mg/kg/injection, schedule: Q01DX001 (ip), vehicle: saline + alcohol): 10 of 10 | survivor count (dose: 5.1 mg/kg/injection, schedule: Q01DX001 (ip), vehicle: saline + alcohol): 10 of 10 | survivor count (dose: 10.2 mg/kg/injection, schedule: Q01DX001 (ip), vehicle: saline + alcohol): 10 of 10 | survivor count (dose: 20.4 mg/kg/injection, schedule: Q01DX001 (ip), vehicle: saline + alcohol): 10 of 10 | survivor count (dose: 40.7 mg/kg/injection, schedule: Q01DX001 (ip), vehicle: saline + alcohol): 10 of 10 | survivor count (dose: 81.4 mg/kg/injection, schedule: Q01DX001 (ip), vehicle: saline + alcohol): 10 of 10

CC(=O)Nc1ncc2ccccc2c1-c1ccc(N(CCCl)CCCl)cc1
survivor count (dose: 1.0 mg/kg/injection, schedule: Q01DX001 (ip), vehicle: other): 2 of 2 | survivor count (dose: 10.0 mg/kg/injection, schedule: Q01DX001 (ip), vehicle: other): 2 of 2 | survivor count (dose: 100.0 mg/kg/injection, schedule: Q01DX001 (ip), vehicle: other): 2 of 2
